Measured values: the supplement of paper PMC9135407
“And” between values parts separate entries of the source, which are not always exact repeats. Equal values may be shown once. Where a name gives a salt, the structure may show the parent alone. ± gives the standard deviation of the averaged measurements. The list shows a part of the results. Part of the spread comes from offsets between plates or batches.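 Primary human stellate myofibroblasts activated in culture; inactivation shown by regained lipid droplets. Readout: fraction of Hoechst-counted cells exceeding a per-plate Bodipy threshold, duplicate wells, each plate with DMSO negative and nortriptyline positive controls. Hits: control-normalized score beyond the plate's top-tenth-percentile nortriptyline wells, or among its three best wells. Final well concentrations unstated.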

Test system: primary human hepatic stellate cells (donor 1)
Test: percent Bodipy-positive cells; higher = more lipid droplet accumulation
Settings: 48 h
[1] = library stock concentration: 3.33 mM
[2] = library stock concentration: 10 mM
[3] = library stock concentration: 4.7 mM
[4] = library stock concentration: 80 uM
[5] = library stock concentration: 400 uM
[6] = library stock concentration: 2 mM

SMILES: CN(C)CCCN1c2ccccc2Sc2ccc(Cl)cc21 [Chlorpromazine]
- percent Bodipy-positive cells (library stock concentration: 6.3 mM): 74.6 ± 4.8%

SMILES: CC(C)C[C@H](NC(=O)CNC(=O)c1cc(Cl)ccc1Cl)B1OC(=O)CC(CC(=O)O)(C(=O)O)O1 (stereo partly drawn)
- percent Bodipy-positive cells [1]: 33.3 ± 7.6%
- percent Bodipy-positive cells [2]: 65 ± 3.8%

SMILES: Cc1nc2c(OCc3ccccc3)cccn2c1CC#N
- percent Bodipy-positive cells [2]: 26.2% and 6.07%

SMILES: CCOC(=O)C1=C(C)NC(C)=C(C(=O)OC)C1c1cccc([N+](=O)[O-])c1 (stereo not drawn)
- percent Bodipy-positive cells [2]: 23.7 ± 3%

SMILES: CCOC(=O)C1=C(C)NC(C)=C(C(=O)OC)C1c1cccc([N+](=O)[O-])c1 (stereo not drawn) [Nitrendipine]
- percent Bodipy-positive cells: 10.4 ± 3.6%
- percent Bodipy-positive cells [1]: 11.4 ± 0.54%

SMILES: CC1(C)S[C@@H]2[C@H](N3C(=O)[C@@H](c4ccccc4)NC3(C)C)C(=O)N2[C@H]1C(=O)O [Hetacillin potassium]
- percent Bodipy-positive cells [3]: 4.13 ± 0.86%
- percent Bodipy-positive cells [2]: 15.06 ± 0.09%

SMILES: CN1CCN(c2ccc(OC(F)(F)F)c(Nc3ncc4c(n3)-c3c(c(C(N)=O)nn3CCO)CC4)c2)CC1
- percent Bodipy-positive cells [2]: 61.1 ± 7.1%

SMILES: O=C(CCCCCCCCCCCCC1CCCC1)Nc1ccc(S(=O)(=O)c2ccc(NC(=O)CCCCCCCCCCCCC3CCCC3)cc2)cc1 [Chaulmosulfone]
- percent Bodipy-positive cells [2]: 42.9 ± 9.3%

SMILES: C=C1C[C@H](O)[C@H](C/C=C\CCCC(=O)O)[C@H]1/C=C/C(=O)CCCCC [11-deoxy-11-methylene-15-keto Prostaglandin D2]
- percent Bodipy-positive cells (library stock concentration: 1 mM): 7.4 ± 0.48%

SMILES: COc1cc(C[C@H]2C(=O)OC[C@@H]2Cc2ccc(OC)c(OC)c2)ccc1O [Arctigenin]
- percent Bodipy-positive cells [2]: 8.71 ± 1.1%

SMILES: NS(=O)(=O)c1cc2c(cc1C(F)(F)F)NC(Cc1ccccc1)NS2(=O)=O (stereo not drawn) [Bendroflumethiazide]
- percent Bodipy-positive cells: 13.7 ± 1.1%
- percent Bodipy-positive cells [3]: 17.8 ± 3.2%

SMILES: NS(=O)(=O)c1cc2c(cc1C(F)(F)F)NC(Cc1ccccc1)NS2(=O)=O (stereo not drawn) [Bendrofumethiazide]
- percent Bodipy-positive cells [2]: 58.7 ± 31%

SMILES: NS(=O)(=O)c1cc2c(cc1C(F)(F)F)NC(Cc1ccccc1)NS2(=O)=O (stereo not drawn) [Bendrofluazide]
- percent Bodipy-positive cells [2]: 28 ± 2.7%

SMILES: CNC(=O)c1ccccc1Sc1ccc2c(/C=C/c3ccccn3)n[nH]c2c1 [Axitinib]
- percent Bodipy-positive cells [4]: 18.7 ± 8.1%
- percent Bodipy-positive cells [5]: 15.4 ± 5.3%
- percent Bodipy-positive cells [6]: 15.5 ± 1.1%
- percent Bodipy-positive cells [1]: 14.6 ± 5.1%

SMILES: CNC(=O)c1ccccc1Sc1ccc2c(/C=C/c3ccccn3)n[nH]c2c1
- percent Bodipy-positive cells [5]: 12.4 ± 2.4%
- percent Bodipy-positive cells [6]: 15.1 ± 1.6%
- percent Bodipy-positive cells [2]: 33.2 ± 16%

SMILES: Cc1ccc(NC(=O)Nc2cc(C(F)(F)F)ccc2F)cc1Nc1ccc2c(c1)NC(=O)/C2=C\c1ccc[nH]1
- percent Bodipy-positive cells [4]: 15.2 ± 2.8%
- percent Bodipy-positive cells [5]: 32 ± 3.6%

SMILES: CC(C)(NS(=O)(=O)c1ccc(Oc2ccc(F)cc2)cc1)C(=O)NO
- percent Bodipy-positive cells [2]: 51.4 ± 0.34%

SMILES: CC(CN1c2ccccc2Sc2ccccc21)N(C)C (stereo not drawn) [Phenergan]
- percent Bodipy-positive cells [2]: 79.3 ± 9.7%

SMILES: CC(CN1c2ccccc2Sc2ccccc21)N(C)C (stereo not drawn) [Promethazine HCl]
- percent Bodipy-positive cells [1]: 27.7 ± 6.4%
- percent Bodipy-positive cells (library stock concentration: 7 mM): 48.9 ± 3.1%
- percent Bodipy-positive cells [2]: 80.14 ± 0.38%

SMILES: CC(CN1c2ccccc2Sc2ccccc21)N(C)C (stereo not drawn) [Promethazine hydrochloride]
- percent Bodipy-positive cells: 54.6 ± 6.8%
- percent Bodipy-positive cells (library stock concentration: 6.2 mM): 66 ± 1.1%
- percent Bodipy-positive cells [2]: 72.7 ± 3.2%

SMILES: CCOc1cc(N2CCC(O)CC2)ccc1Nc1ncc2c(n1)N(C)c1ccccc1C(=O)N2C
- percent Bodipy-positive cells [4]: 10.3 ± 5.8%
- percent Bodipy-positive cells [5]: 7.65 ± 3.6%
- percent Bodipy-positive cells [6]: 12 ± 4.1%
- percent Bodipy-positive cells [1]: 43.3 ± 8.6%
